PubChem BioAssay AID1259254 | NCATS – 2017
This is an unselected part of about 59,000 reagents tested. In the full data, about 1,550 (2.6%) got an active call. 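G2 share is only a proxy for re-replication; each gene was hit by three separate siRNAs, and active genes were retested.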 The numbers tell different reagents against one gene apart. Not all columns of the deposit are shown. The record does not give: the amount of reagent.

Screen: 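Genome-wide screen for genes that prevent DNA re-replication in cancer cells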 (primary screen)
Cell system: human HCT116 colorectal cancer cells
Knock-down reagent: single siRNA against human genes
Timing: 3 days
Measurement: 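Nuclei stained with Hoechst and imaged; cell-cycle phase assigned by DNA content; G2 share scaled per plate, non-targeting siRNA 0%, GMNN siRNA 100%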
Scale: G2 robust z-score: higher = more G2 cells, more excess DNA replication
Active means: 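An siRNA counts as active if its G2 robust z-score lies at least 5 MADs above the screen median; here such calls match roughly 38% of GMNN control or more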

With knock-down of MAP1A #1, the record shows G2 robust z-score 3.45; inactive.
Silencing of MAP1A #2 resulted in: G2 robust z-score 1.81; inactive.
MAP1A #3 scored G2 robust z-score 0.221; inactive.
NFIA #1 showed G2 robust z-score -0.547; inactive.
NFIA #2 showed G2 robust z-score -1.29; inactive.
Knock-down of NFIA #3 gave: G2 robust z-score 1.57; inactive.
Against LINC00520 #1, the entry reads G2 robust z-score 1.71; inactive.
Against LINC00520 #2, the entry reads G2 robust z-score -0.356; inactive.
LINC00520 #3 gave G2 robust z-score -0.264; inactive.
TRPS1 #1 gave G2 robust z-score -0.21; inactive.
TRPS1 #2 showed G2 robust z-score 2.26; inactive.
Depletion of TRPS1 #3 gave: G2 robust z-score -0.455; inactive.
After knock-down of KRABD1 #1, the record shows G2 robust z-score 1.71; inactive.
Depletion of KRABD1 #2 resulted in: G2 robust z-score 0.458; inactive.
After knock-down of KRABD1 #3, the screen gave G2 robust z-score -0.446; inactive.
Depletion of TMEM131 #1 gave: G2 robust z-score -1.27; inactive.
TMEM131 #2 showed G2 robust z-score 0.789; inactive.
Against TMEM131 #3, the values are G2 robust z-score -0.291; inactive.
Against CD244 #1 the deposit lists G2 robust z-score 0.735; inactive.
For CD244 #2 the deposit lists G2 robust z-score -0.336; inactive.
For CD244 #3, the entry reads G2 robust z-score 2.97; inactive.
With knock-down of CEP135 #1 the results were G2 robust z-score -0.73; inactive.
CEP135 #2 showed G2 robust z-score 0.894; inactive.
Against CEP135 #3, the entry reads G2 robust z-score 0.105; inactive.

A few values from the entries so far.
Result for LINC00520 #1 under “call”: inactive
Entry of TMEM131 #3 in “G2 robust z-score”: -0.291
